In PubChem BioAssay AID1508600 (Functional Genomics Laboratory (NCATS/FGL), 2020):
Hit rate of the full screen: of about 53,000 sequences, about 3,700 (7%) were called active.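 The calls were made as follows: active = gene knockdowns whose robust z-score for IL-1 alpha signal is at least 2 or at most -2, so actives lie on both sides; inactive = the rest.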 The list shows a part of the results.

Test: Components of the Cytosolic LPS Sensing Pathway: Gene Identification via Genome-wide siRNA Screen;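 also: robust z of the log signal after scaling to non-targeting control siRNA wells of the plate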
Conditions: RAW264.7 macrophages, IL-1a HTRF, actives lie on both sides, screened at 100 nM (by protocol), cells primed 5 h with Pam3CSK4 first
Outline: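 Using IL-1a HTRF as read-out, the screen measured release from RAW264.7 cells after 48h siRNA knockdown (100 nM), 5 h Pam3CSK4 priming and 24 h cytosolic LipidA. Values were expressed relative to negative-control wells as robust z-scores.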

Sequence | z-score
GGAAAGCACGUCCUCUUUGTT against Gpx5 | inactive: -0.995
CCUCAGACUACCUUGUGGUTT against Otub1 | inactive: -0.216
GGCAACCAAUCAAAUUGUGTT against Npepps | inactive: -0.192
GGAUCCUUGUACAGAAAUGTT against Arhgap33 | inactive: -0.334
CAAAGCCACCUCGCCCUAUTT against Nkx2-6 | inactive: -0.0586
GGAAUUAAAUGAACCCAGATT against Arhgap8 | active: 2.48
UACCCGAAUGCAGACAGGATT against Raet1a | inactive: 0.667
CCAUUGUAGUCAGUCAAAUTT against Pip | inactive: -0.498
GGUCCUAUGGAUUAAUGCUTT against Ccn4 | active: 3.46
GGAGGAAGAGCUCAUUGCATT against Tnnt1 | inactive: 0.588
GGCUGUAGCCAAAUAUCUUTT against Sec62 | inactive: -0.927
GGUUAACGAAGGAGAGAAGTT against Rsph9 | inactive: 0.198
GGCCAAGGGAAAAAAACCCTT against Pax7 | inactive: -1.1
GACUACACUGAUUUUUCAUTT against Olfr980 | inactive: -0.369
GCACUUGAAUCGAUUGAAUTT against Ppp4r3b | inactive: -1.46
GGAUAGUUUUGUGUUUGAUTT against Gab2 | inactive: 0.932
CGCAACAGAUAGUAAAUAUTT against Ufsp2 | inactive: -1.21
GGAUGCCAUUUACCGUGCUTT against Olfr418 | inactive: 1.2
GGAAGGAGUAUGGCAGGAGTT against Fbxo17 | inactive: -0.544
CGGCAAUUUGAGUUGAAAATT against Ppp1r2-ps9 | inactive: -0.571
GGACUGCUGUCACCAUUUCTT against Gpr132 | inactive: 0.627
GCCUGGAUUCAGAAGCUACTT against Ugt1a1 | inactive: -0.51
GGGAAUAAGUAGUAGACUCTT against Zfp948 | inactive: 1.17

Sequence | z-score
GGGUGAAGUAGGUGAAAAATT against H2-M10.6 | inactive: -0.361
GGUAUAAGACCUUUUCAACTT against Olfr509 | inactive: -0.393
GGAAAAGAAAGAAGCUUUUTT against Rrp1b | inactive: 0.988
GGAAGAAAUCAUCCACAACTT against Bid | inactive: -1.27
GGCCUUGUGUGCAAUGAGATT against Mfge8 | inactive: -0.448
GGCUGGACACUUCAAAAUGTT against 4930412M03Rik | inactive: -0.988
GCCUCCUGUCAAAGGUUCATT against Cd300c | inactive: 1.69
GCCUGCACGAUUGGAAUUATT against Aqr | inactive: 1.56
GGUGUCUUCAGUUAUAGAUTT against Pard6a | inactive: -0.203
GGAAGGACAAAGAAAGCCUTT against Fbxw4 | inactive: -0.286
GUCAGAGCUUGAGGAGUUCTT against Aurkaip1 | inactive: 0.783
GGACAAUGUGGUAGUGGACTT against Mvb12a | inactive: -0.426
GGAAGUGACACGAUUUGAGTT against Snx1 | inactive: -0.804
CCACGAGAAGUGGAUAUUATT against Plcxd3 | inactive: -1.1
GGUAGAAAAUGUUUACCCUTT against Gk5 | inactive: -1.07
GGAUCUCUACCAUUUGAUUTT against Rps13 | inactive: -1.75
GGCCGUGAUAGUCAGUGACTT against Teddm1b | inactive: 0.912
GGAGAAGAGGACUUUGGUGTT against Opalin | inactive: 0.234
GCACUUAUGCCAGAUUGGCTT against Ifi35 | inactive: -1.54
CCAUUGAUCCCAUGAUCUUTT against Rreb1 | inactive: 1.33
GGACUCCAGACUUGAAACATT against Uchl5 | inactive: -1.3
CCCUAUUCUGCUUUCACUUTT against Sap18 | inactive: 0.198
CGAUUAUGAGCACUAUAUUTT against Ddx20 | active: 2.12

Sequence | z-score
GGAACUUCGACUCUGAGAUTT against Rmnd5b | inactive: -0.00387
GGCUAUGAGGACUCCUAUGTT against Plekha7 | active: -2.53
CCUAGAGCUGAAGAGAUUATT against Aif1 | inactive: -0.266
AGAGUUGUCCAUGUUCCAGTT against Six3 | inactive: -1.44
CGGAAAAGAUCCCUAUUGUTT against Adam5 | inactive: 0.373
CCAACAACUCUGUAUGCUGTT against Olfr1355 | inactive: -0.247
GGCCCUAACAAUUCAUGAUTT against Uba6 | inactive: -0.574
GGUAGUGGAUGGGAGCUCATT against Thtpa | inactive: -0.255
GCACUAGUUAGAGAUCUUATT against Stmnd1 | inactive: 0.842
GCUUGUCCUAUCUAUUUUATT against Mthfd2 | inactive: 0.419
CGCAAAAAUCAGCACAGCUTT against Ptp4a3 | inactive: 1.96
GGAGGACUUCUCCUCCUUCTT against Mfsd13a | inactive: 0.532
CCCGAGAUGUAUCAUCUAATT against Krcc1 | inactive: -0.31
GGUCUUGGUCCCUGAGAAATT against Ddit4l | inactive: 0.23
GCAAAACUUAUCUGACCUATT against Smn1 | inactive: 0.418
GCCCUGUGCUUGGCAACAUTT against Ssbp3 | active: -2.36
GCCCGAUAUCGUGUUUUUCTT against Sirt2 | inactive: 0.826
GGUGAACACCUUUAUGAGGTT against Dguok | inactive: 0.563
GCCUGACUUUCUUAAAGGCTT against 2810006K23Rik | inactive: 0.82
GGAUGAACCAAGCUACUGCTT against Gba2 | inactive: -0.541
GGCAAAGAAAACCAUGUCCTT against Zfp82 | inactive: 1.34
GCAGUAAACUCCUAGGUCATT against Mturn | inactive: -0.269

Reprinted from the results shown (3 entries):
Sequence | z-score
GCCCGAUAUCGUGUUUUUCTT against Sirt2 | inactive: 0.826
GGUGAACACCUUUAUGAGGTT against Dguok | inactive: 0.563
GCCUGACUUUCUUAAAGGCTT against 2810006K23Rik | inactive: 0.82
